Reference: PMC5995870
No constants are given. Whether binding was seen depends on the method and setting. For some assays here: Binding seen in cells or lysates may run through a third protein. Some entries that bind do so weakly or less than the wild type. For some assays here: Where a sequence is shown, tags or fusion partners need not be part of it.

Chains of the proteins cited; added tags and fusions are not shown.
UniProt Q5VVQ6: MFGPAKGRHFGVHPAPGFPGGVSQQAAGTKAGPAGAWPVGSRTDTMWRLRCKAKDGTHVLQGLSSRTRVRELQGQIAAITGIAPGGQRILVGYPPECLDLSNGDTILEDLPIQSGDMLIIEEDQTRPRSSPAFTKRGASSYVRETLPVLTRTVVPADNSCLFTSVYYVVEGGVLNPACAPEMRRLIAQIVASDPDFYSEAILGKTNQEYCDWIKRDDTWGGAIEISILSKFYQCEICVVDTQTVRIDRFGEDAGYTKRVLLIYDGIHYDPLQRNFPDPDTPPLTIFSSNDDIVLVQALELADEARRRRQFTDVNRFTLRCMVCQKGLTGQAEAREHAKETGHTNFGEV
UniProt O00303: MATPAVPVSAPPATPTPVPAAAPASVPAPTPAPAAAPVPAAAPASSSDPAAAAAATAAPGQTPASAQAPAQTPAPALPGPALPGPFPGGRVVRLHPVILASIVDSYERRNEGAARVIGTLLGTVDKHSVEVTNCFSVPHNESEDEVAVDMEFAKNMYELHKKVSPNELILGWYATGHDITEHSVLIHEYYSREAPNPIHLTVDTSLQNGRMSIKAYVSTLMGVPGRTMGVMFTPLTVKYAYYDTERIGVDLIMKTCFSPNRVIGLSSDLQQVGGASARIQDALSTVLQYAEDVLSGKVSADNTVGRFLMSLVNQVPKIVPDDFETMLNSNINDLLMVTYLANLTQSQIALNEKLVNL
UniProt Q14694: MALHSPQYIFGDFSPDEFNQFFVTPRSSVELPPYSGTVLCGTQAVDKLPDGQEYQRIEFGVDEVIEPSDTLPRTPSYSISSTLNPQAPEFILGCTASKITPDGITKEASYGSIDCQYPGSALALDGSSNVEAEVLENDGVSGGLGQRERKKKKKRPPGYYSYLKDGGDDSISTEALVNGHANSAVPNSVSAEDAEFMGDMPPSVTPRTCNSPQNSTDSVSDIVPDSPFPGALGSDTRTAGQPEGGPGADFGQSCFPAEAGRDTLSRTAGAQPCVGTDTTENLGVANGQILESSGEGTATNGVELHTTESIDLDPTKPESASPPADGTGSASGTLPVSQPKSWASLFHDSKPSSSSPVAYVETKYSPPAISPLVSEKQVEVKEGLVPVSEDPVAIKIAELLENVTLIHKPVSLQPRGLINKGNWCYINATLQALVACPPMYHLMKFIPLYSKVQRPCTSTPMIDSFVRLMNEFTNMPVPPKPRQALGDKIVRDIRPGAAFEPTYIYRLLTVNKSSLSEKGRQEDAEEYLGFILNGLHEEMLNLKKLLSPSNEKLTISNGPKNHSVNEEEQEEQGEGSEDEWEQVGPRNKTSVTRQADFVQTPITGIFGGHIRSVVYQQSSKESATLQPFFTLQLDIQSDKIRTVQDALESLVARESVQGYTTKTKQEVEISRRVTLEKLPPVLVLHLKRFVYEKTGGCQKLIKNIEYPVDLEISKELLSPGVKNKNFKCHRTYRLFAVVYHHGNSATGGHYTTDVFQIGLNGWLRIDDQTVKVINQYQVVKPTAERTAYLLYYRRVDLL
UniProt Q6GQQ9: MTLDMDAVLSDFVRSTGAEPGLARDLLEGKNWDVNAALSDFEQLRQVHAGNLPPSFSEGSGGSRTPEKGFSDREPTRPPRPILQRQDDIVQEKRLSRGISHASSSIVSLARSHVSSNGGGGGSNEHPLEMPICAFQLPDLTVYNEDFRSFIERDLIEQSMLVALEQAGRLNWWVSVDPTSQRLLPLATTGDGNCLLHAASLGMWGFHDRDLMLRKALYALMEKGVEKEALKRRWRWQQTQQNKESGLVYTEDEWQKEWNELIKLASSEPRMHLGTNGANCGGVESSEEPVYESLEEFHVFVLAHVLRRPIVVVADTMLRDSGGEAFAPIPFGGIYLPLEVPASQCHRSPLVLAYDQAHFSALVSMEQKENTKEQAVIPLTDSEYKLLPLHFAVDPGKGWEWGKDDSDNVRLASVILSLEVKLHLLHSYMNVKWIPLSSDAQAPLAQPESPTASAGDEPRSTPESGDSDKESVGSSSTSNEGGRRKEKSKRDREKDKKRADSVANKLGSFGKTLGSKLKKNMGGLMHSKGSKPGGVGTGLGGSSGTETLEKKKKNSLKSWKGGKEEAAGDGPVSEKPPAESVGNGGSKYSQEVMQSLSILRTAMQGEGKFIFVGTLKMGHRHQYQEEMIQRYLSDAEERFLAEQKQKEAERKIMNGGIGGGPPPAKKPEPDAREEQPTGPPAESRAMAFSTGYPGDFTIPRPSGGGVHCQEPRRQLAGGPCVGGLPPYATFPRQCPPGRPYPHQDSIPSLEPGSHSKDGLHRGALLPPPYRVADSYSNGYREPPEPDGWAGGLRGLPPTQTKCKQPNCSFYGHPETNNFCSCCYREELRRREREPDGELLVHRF

Tests used:
GST-OTUD1 (human) = target: T1, GST-OTUD1 (human) (UniProt Q5VV17); assay: pull-down; in vitro binding; purified His-YAP incubated with purified GST-OTUD1, pulldown with Glutathione Sepharose beads; both purified
T1 sequence: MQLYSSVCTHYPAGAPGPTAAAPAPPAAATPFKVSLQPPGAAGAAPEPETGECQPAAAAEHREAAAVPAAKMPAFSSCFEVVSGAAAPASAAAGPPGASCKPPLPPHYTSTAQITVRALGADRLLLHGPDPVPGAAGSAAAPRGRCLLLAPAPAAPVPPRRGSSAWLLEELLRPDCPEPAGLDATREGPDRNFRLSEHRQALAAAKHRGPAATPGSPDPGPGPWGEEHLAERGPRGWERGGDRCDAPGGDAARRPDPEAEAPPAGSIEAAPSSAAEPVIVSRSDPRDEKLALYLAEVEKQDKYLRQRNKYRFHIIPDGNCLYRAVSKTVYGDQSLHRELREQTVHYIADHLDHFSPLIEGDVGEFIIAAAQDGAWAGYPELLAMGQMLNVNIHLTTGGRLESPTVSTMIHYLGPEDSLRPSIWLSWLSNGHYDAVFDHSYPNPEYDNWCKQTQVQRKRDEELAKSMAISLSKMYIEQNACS

SFB-tagged YOD1 (human) = SFB-tagged YOD1 (human) (UniProt Q5VVQ6); assay: pull-down; SFB-tagged DUBs co-transfected with MYC-YAP into HEK293T cells; pulldown with S-protein beads; blots for FLAG and MYC
SFB-tagged USP47 (human) = target: T2, SFB-tagged USP47 (human) (UniProt Q96K76); assay: as above
T2 sequence: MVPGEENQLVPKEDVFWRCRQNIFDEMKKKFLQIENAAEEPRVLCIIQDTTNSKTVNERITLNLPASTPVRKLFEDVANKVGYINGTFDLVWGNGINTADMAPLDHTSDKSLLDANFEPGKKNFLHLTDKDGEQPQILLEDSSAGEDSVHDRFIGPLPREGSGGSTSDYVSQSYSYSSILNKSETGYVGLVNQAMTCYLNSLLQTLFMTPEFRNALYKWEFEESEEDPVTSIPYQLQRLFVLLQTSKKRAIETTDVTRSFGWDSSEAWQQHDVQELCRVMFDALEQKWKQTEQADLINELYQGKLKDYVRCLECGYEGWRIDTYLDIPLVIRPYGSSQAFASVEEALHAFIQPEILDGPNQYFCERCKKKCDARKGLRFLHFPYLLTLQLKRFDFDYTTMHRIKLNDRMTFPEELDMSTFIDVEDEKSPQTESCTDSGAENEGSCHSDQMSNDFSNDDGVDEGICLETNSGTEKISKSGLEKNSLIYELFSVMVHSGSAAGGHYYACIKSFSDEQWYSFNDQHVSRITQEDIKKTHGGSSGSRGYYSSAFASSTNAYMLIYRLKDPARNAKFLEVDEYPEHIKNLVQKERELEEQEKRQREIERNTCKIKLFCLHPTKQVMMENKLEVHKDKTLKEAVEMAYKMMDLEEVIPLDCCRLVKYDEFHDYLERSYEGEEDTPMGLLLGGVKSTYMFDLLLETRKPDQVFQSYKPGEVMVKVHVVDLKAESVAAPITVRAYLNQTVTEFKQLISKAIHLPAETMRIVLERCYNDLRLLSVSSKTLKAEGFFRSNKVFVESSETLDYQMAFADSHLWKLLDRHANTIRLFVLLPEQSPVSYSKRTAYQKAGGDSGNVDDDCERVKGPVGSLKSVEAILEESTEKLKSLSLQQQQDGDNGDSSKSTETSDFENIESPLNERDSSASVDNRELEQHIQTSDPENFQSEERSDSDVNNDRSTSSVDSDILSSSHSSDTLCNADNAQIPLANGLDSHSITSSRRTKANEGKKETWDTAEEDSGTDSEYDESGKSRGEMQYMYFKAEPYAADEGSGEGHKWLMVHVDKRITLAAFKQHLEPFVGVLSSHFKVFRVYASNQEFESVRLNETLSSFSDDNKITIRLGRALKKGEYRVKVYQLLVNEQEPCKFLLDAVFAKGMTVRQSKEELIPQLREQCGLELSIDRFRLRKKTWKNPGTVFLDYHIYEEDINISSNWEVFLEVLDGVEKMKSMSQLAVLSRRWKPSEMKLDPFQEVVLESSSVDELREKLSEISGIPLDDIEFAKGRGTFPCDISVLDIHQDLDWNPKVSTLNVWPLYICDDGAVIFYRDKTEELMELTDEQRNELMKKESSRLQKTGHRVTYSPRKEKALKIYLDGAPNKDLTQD

SFB-tagged JOSD2 (human) = target: T3, SFB-tagged JOSD2 (human) (UniProt Q8TAC2); assay: as above
T3 sequence: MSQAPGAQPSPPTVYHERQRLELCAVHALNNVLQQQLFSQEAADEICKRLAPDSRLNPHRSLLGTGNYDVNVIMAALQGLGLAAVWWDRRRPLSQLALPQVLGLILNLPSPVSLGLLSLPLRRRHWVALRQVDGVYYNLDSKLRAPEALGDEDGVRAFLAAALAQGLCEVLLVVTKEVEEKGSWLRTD

[1] = target: SFB-tagged EIF3S5 (human) (UniProt O00303); assay: as above
SFB-tagged USP10 (human) = SFB-tagged USP10 (human) (UniProt Q14694); assay: as above
SFB-tagged OTUD1 (human) = target: T4, SFB-tagged OTUD1 (human) (UniProt Q5VV17); assay: as above
T4 sequence: T1 sequence

[2] = target: SFB-tagged OTUD7B (human) (UniProt Q6GQQ9); assay: as above

Measured: binding

His-YAP (from UniProt P46937 1-504)
binds: GST-OTUD1 (human)

MYC-tagged YAP (from UniProt P46937 1-504)
not listed: GST-OTUD1 (human)
binds: all other assays above
